# Measured values as given in PubChem BioAssay AID540256 (National Center for Advancing Translational Sciences (NCATS), 2011).
# The campaign covered roughly 300,000 compounds. About 3,700 (1.2%) were called active. This list was built around the results that the source calls inconclusive (neither active nor inactive); the mix of calls is not that of the screen. Calls come from the whole dose curve; tested in HEK293 cells. A potency beside an inconclusive call is a rough fit, not a confirmed value.
# Assay: qHTS for Inhibitors of binding or entry into cells for Lassa Virus; note: nearly all actives have a fitted effect of over 50% in size
# Conditions: Lassa virus pseudotype entry inhibition, cell reporter; activity change, negative = inhibition: at 37.9 µM (top of the series) unless noted
# % is set by controls: 0 for no effect and ±100 for the full control effect; potency is the fitted concentration of half-maximal effect.
Structure (SMILES),Potency,"activity change, negative = inhibition"
N=c1c(C(=O)NCC2CCCO2)cc2c(=O)n3ccccc3nc2n1Cc1ccccc1Cl (centres undefined),"inconclusive: 2.51 µM [inhibitor, full curve, poor fit]",–
Cc1ccc(S(=O)(=O)NC(=NC2CCCCC2)c2ccccc2)cc1,"inconclusive: 11.2 µM [inhibitor, partial curve, poor fit]",–
CCNc1nc(NC(C)C)nc(Oc2ccc(OCCOc3ccc(C)cc3)nn2)n1,"inconclusive: 5.17 µM [inhibitor, full curve, poor fit]",–
CC(C)(C)NC(=O)NC(=O)COc1ccc(Br)cc1Br,active: 5.8 µM,–
O=C(COc1cccnc1[N+](=O)[O-])Nc1cccc(Br)c1,"inconclusive: 28.2 µM [activator, partial curve, poor fit]",–
Cc1ccc(-n2ncc(C(=O)N3CCN(Cc4ccccc4)CC3)c2C2CCN(C(=O)OC(C)(C)C)CC2)c(C)c1,"inconclusive: 1 µM [inhibitor, full curve, poor fit]",–
CCCC(=O)OCC1CN(Cc2ccco2)S(=O)(=O)c2c(F)cccc2O1 (centres undefined),"inconclusive: 1.12 µM [activator, full curve, poor fit]",–
O=C(Nc1cccc(-c2cccc(Cl)c2)c1)C1CCN(Cc2ccccn2)CC1,active: 10 µM,–
COC(=O)c1nn(-c2ccccc2)c(Cl)c1/C=N/OCc1ccc(C)cc1,"inconclusive: 12.6 µM [inhibitor, single point]",–
CCC(=O)Oc1ccc(-c2nc3ccccc3c(=O)o2)cc1,–,inactive: 27.3% [at 46.1 µM]
O=[N+]([O-])c1cccc(Cn2cnc3c(=S)nc[nH]c32)c1,–,inactive: -5.46% [at 46.1 µM]
CCSc1nnc(NC(=O)C(CC)(C(F)(F)F)C(F)(F)F)s1,active: 12.6 µM,–
CC(/C=N/NC(=O)c1cccnc1)=C\c1ccco1,"inconclusive: 32.6 µM [activator, partial curve, poor fit]",–
O=C(Nc1cccc2c1CCCC2)c1ccc(Cl)c([N+](=O)[O-])c1,–,inactive: 0.449%
O=C(O)c1nc(Cl)c(Cl)c(N/N=C/c2ccccc2C(F)(F)F)c1Cl,–,inactive: -12.6% [at 46.1 µM]
COc1ccc(OCCOCCOc2ccc(C)cc2[N+](=O)[O-])cc1,–,inactive: 13.8%
Cc1ccc(S(=O)(=O)c2nc(-c3ccc(Cl)cc3)oc2N2CCCCCC2)cc1,–,inactive: 1.34% [at 46.1 µM]
O=c1c2cc(-c3ccccc3)sc2ncn1/N=C/c1ccco1,"inconclusive: 20 µM [activator, partial curve, poor fit]",–
c1ccc2oc(-c3ccc(Nc4nc(N5CCOCC5)nc(N5CCOCC5)n4)cc3)nc2c1,"inconclusive: 7.08 µM [activator, partial curve, poor fit]",–
COC(=O)C(C(=O)Nc1ncccn1)C1CCCCCC1 (centres undefined),–,inactive: 0.812%
CCCNC(=O)c1cc(-c2ccc(OC)cc2)on1,"inconclusive: 13 µM [inhibitor, single point]",–
COc1ccc(CNC(=O)COc2ccc([N+](=O)[O-])cc2)cc1,"inconclusive: 23.1 µM [inhibitor, single point]",–
Cc1ccc(Nc2nc(N/N=C/c3c[nH]c4ccccc34)nc(N3CCOCC3)n2)cc1,active: 14.6 µM,–
Cc1nnc(SCC(=O)NCc2ccccc2F)c2nn(-c3ccc(Cl)cc3)c(C)c12,–,inactive: -10.7% [at 46.1 µM]
CSc1ccccc1NC(=O)C1CCCO1 (centres undefined),"inconclusive: 20.6 µM [activator, partial curve, poor fit]",–

Structure (SMILES),Potency,"activity change, negative = inhibition"
Cc1cc(NC(=O)C2CCCCC2)n(-c2nc3ccccc3[nH]2)n1,"inconclusive: 35.5 µM [inhibitor, single point]",–
Cc1cccc(N2C(=O)CCSC23C(=O)N(Cc2ccc(F)cc2)c2ccccc23)c1 (centres undefined),"inconclusive: 35.5 µM [inhibitor, single point]",–
COc1ccc(-n2c(SC)nc3sc4c(c3c2=O)CCN(C)C4)cc1,–,inactive: 0.311% [at 46.1 µM]
COc1ccc(NC(=O)C2=C(C)Nc3nc(SCc4ccccc4)nn3C2c2cc(OC)ccc2OC)cc1 (centres undefined),"inconclusive: 1.58 µM [inhibitor, full curve, poor fit]",–
CCC(C)NC(=O)Cn1cc(S(=O)(=O)N2CCN(c3ccccc3F)CC2)c2ccccc2c1=O (centres undefined),"inconclusive: 7.08 µM [inhibitor, full curve, poor fit]",–
O=C1C=CC(=O)N1c1ccc(N2CCCCC2)cc1,"inconclusive: 20 µM [inhibitor, partial curve, poor fit]",–
CC(C)Cc1ccc(CN2CCCC(NC(=O)c3ccoc3)C2)cc1 (centres undefined),"inconclusive: 17.8 µM [inhibitor, single point]",–
CCc1ccc(-c2ccc(C(=O)Oc3ccc(Br)cc3)cc2)nc1,–,inactive: 5.63% [at 46.1 µM]
COc1ccc(NC(=O)c2ccc(C(=O)c3cc(OC)ccc3OC)cc2)cc1,–,inactive: -22.3%
COc1ccccc1CN(Cc1nc2ccccc2c(=O)[nH]1)C(=O)Nc1ccccc1C,–,inactive: -0.558%
CC(C)c1ccc(/C=N/Nc2ccc(C(=O)O)cc2)cc1,active: 0.651 µM,–
N#CCSc1nnc(C2CCCCC2)n1Cc1ccccc1,"inconclusive: 29.1 µM [activator, single point]",–
O=C(NCc1ccccc1)c1ccc2ccccc2n1,"inconclusive: 4.47 µM [inhibitor, full curve, poor fit]",–
COc1ccc(NC(=O)Cc2csc(C)n2)cc1,"inconclusive: 6.31 µM [activator, partial curve]",–
O=c1c2ccccc2c(-c2ccccc2)nn1Cc1ccc(Cl)cc1,–,inactive: -0.409%
O=C(/C=C/c1ccc(OC(F)F)cc1)Nc1cccc(S(=O)(=O)NC2=NCCCCC2)c1,active: 10 µM,–
O=C(COC(=O)/C=C/c1ccco1)NCc1ccccc1Cl,–,inactive: 4.19% [at 46.1 µM]
O=c1cc(-c2cccc(F)c2)oc2ccccc12,–,inactive: 3.94% [at 46.1 µM]
CCc1nnc(SCC(=O)Nc2ccc3c(c2)OCO3)n1CC,"inconclusive: 6.31 µM [inhibitor, single point]",–
CC(C)CNC(=S)Nc1ccc(S(N)(=O)=O)cc1,–,inactive: 2.69%
CC(C)c1ccc(NC(=S)NN2CCOCC2)cc1,–,inactive: 1.33%
COc1ccccc1C(C(=O)NC1CCCC1)N(C(=O)c1csnn1)C1CC1 (centres undefined),–,inactive: -9.06%
O=C(CC1(O)C(=O)N(CCc2ccccc2)c2ccc(Br)cc21)c1ccccc1O (centres undefined),"inconclusive: 17.8 µM [inhibitor, single point]",–
CCN(CC)C(=O)CSc1nc2ccccc2c(=O)n1CC1CCCCC1,"inconclusive: 35.5 µM [inhibitor, single point]",–
O=S(=O)(c1ccc(Cl)cc1)N1CCN(C(=S)Nc2ccc(F)c(Cl)c2)CC1,"inconclusive: 29.1 µM [inhibitor, partial curve, poor fit]",–

Structure (SMILES),Potency,"activity change, negative = inhibition"
CC1CCCC(C)N1C(=O)COC(=O)c1ccc([N+](=O)[O-])o1 (centres undefined),–,inactive: 11.8% [at 46.1 µM]
O=C(CSc1ccccc1)Nc1ccc(S(=O)(=O)Nc2ncccn2)cc1,"inconclusive: 0.355 µM [inhibitor, full curve, poor fit]",–
CN1CC(=O)N(CC(=O)NCCc2ccc(F)cc2)c2ccccc2C1=O,"inconclusive: 1.26 µM [activator, single point]",–
CN1CCN(C(=O)C23CC4CC(C2)CC(c2ccccc2)(C4)C3)CC1,"inconclusive: 35.5 µM [inhibitor, single point]",–
COc1ccc(Cl)cc1N1CC(C(=O)Nc2nccs2)CC1=O (centres undefined),"inconclusive: 3.98 µM [inhibitor, partial curve, poor fit]",–
O=C(c1cccc(C(F)(F)F)c1)C1CCCN(C(=O)CCCn2cncn2)C1 (centres undefined),–,inactive: -1.29%
CC(=O)/C(=N\Nc1ccc(Cl)cc1Cl)Sc1cccc2cccnc12,active: 11.2 µM,–
COc1cccc(C2C(C(C)=O)=C(O)C(=O)N2Cc2ccco2)c1 (centres undefined),–,inactive: -16.6%
O=C(COC(=O)COc1ccc2ccccc2c1)NC1CCCc2ccccc21 (centres undefined),"inconclusive: 1.26 µM [inhibitor, single point]",–
COCC1CCN(C(=O)CCc2nnc(C3(c4ccc(Cl)cc4)CCC3)o2)CC1,–,inactive: 7.96%
COc1ccc(C(CNC(=O)c2ccc(OCc3ccccc3)cc2)N2CCOCC2)cc1 (centres undefined),"inconclusive: 11.2 µM [inhibitor, partial curve, poor fit]",–
CCOC(=O)c1sc2nc(C)nc(NCc3ccc(Cl)cc3)c2c1C,"inconclusive: 11.2 µM [inhibitor, single point]",–
N#Cc1ccc(CSc2nnc(-c3c[nH]c4ccccc34)n2-c2ccccc2)cc1,"inconclusive: 12.6 µM [inhibitor, partial curve, poor fit]",–
CC(/C=N/n1c(COc2ccccc2)n[nH]c1=S)=C\c1ccccc1,"inconclusive: 29.1 µM [inhibitor, single point]",–
CCCS(=O)(=O)N1CCC(C(=O)NCCc2ccccc2)CC1,–,inactive: 17.1%
CCCCCn1c(=O)[nH]c2cc(C(=O)Nc3ccc(F)cc3)ccc2c1=O,"inconclusive: 3.98 µM [activator, full curve, poor fit]",–
Cc1ccc(NC(=O)CSCC(=O)N(C)CC(=O)Nc2cccc3ccccc23)cc1,–,inactive: -13.3%
O=C(NCCc1ccccc1)C1CCCN(S(=O)(=O)c2cccc3nsnc23)C1 (centres undefined),–,inactive: 0.106%
CNC(=O)c1sc(N2N=C3/C(=C/c4ccccc4)CCCC3C2c2ccccc2)nc1C (centres undefined),"inconclusive: 23.1 µM [inhibitor, partial curve, poor fit]",–
CCOc1ccc(/C=C2\SC(=S)N(CCC(=O)O)C2=O)cc1,–,inactive: -24.1% [at 46.1 µM]
CCOc1ccc(NC(=O)COc2ccc3c(c2)OCO3)cc1,–,inactive: 16.6%
CC(NC(=O)CN1CCc2ccccc21)c1ccccc1 (centres undefined),–,inactive: -7.01%
COc1ccc(-c2c[n+]3c(n2-c2ccccc2)SCC3)cc1OC,–,inactive: -14.7%
CSc1nc(O)c(Nc2ccccc2)c(=O)[nH]1,–,inactive: 11.3% [at 46.1 µM]

# Whole records from above. Order of values: Potency | activity change, negative = inhibition
# Cc1ccc(NC(=O)CSCC(=O)N(C)CC(=O)Nc2cccc3ccccc23)cc1 reads – | inactive: -13.3%
# COc1cccc(C2C(C(C)=O)=C(O)C(=O)N2Cc2ccco2)c1 (centres undefined) reads – | inactive: -16.6%
# O=C(CSc1ccccc1)Nc1ccc(S(=O)(=O)Nc2ncccn2)cc1 reads inconclusive: 0.355 µM [inhibitor, full curve, poor fit] | –
